Data as given in the supplement of paper PMC10849652.
Some of the results follow.

By UniProt entry, the sequences of proteins in these tests, tags left out. Where a name states a change or a piece, a line headed by the entry shows the natural chain unless it says otherwise.
UniProt Q9Y3B2, whole entry, looked up: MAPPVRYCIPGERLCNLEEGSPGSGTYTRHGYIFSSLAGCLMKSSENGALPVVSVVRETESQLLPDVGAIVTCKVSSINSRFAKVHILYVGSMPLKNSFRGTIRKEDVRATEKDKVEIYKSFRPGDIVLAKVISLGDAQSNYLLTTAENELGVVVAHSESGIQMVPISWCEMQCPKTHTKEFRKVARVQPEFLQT
UniProt P38117: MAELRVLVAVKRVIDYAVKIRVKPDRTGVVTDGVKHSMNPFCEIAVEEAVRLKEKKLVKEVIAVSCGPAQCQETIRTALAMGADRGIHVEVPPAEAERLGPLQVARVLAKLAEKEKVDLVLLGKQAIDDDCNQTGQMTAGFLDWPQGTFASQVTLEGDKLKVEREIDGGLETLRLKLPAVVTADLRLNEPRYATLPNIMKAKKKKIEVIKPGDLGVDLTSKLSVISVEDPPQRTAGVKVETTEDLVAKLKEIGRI
UniProt Q96DZ1: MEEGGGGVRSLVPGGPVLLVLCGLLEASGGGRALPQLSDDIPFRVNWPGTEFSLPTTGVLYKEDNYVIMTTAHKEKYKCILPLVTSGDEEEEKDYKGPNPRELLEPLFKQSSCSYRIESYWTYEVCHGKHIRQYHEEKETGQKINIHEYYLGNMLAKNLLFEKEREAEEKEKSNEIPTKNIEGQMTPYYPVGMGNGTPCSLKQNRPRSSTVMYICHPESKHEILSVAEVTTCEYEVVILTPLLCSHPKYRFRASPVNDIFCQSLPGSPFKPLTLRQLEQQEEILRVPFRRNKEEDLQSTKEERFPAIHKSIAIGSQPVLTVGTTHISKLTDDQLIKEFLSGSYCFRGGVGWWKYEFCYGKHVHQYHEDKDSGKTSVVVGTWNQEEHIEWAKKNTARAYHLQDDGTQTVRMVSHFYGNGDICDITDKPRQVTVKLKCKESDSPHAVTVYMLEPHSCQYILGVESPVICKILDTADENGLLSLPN
UniProt O75063: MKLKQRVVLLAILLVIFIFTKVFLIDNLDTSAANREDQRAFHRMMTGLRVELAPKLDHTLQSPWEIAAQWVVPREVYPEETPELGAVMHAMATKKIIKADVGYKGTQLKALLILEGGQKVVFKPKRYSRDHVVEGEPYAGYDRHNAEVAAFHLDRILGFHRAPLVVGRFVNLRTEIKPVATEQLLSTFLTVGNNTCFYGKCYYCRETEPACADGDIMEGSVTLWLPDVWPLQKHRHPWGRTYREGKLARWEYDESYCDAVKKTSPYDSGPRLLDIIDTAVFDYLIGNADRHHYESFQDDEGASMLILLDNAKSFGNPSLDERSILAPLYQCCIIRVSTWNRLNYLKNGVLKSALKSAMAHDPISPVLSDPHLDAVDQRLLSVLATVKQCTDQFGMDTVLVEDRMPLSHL
UniProt Q13868, whole entry, looked up: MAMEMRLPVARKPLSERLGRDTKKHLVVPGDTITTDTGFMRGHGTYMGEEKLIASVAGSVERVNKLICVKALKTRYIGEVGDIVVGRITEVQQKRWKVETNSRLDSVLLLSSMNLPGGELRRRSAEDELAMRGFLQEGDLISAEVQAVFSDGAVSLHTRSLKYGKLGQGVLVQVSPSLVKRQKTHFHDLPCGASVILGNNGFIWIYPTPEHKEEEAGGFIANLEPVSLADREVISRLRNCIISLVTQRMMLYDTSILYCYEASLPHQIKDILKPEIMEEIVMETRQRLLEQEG
UniProt Q96RT1: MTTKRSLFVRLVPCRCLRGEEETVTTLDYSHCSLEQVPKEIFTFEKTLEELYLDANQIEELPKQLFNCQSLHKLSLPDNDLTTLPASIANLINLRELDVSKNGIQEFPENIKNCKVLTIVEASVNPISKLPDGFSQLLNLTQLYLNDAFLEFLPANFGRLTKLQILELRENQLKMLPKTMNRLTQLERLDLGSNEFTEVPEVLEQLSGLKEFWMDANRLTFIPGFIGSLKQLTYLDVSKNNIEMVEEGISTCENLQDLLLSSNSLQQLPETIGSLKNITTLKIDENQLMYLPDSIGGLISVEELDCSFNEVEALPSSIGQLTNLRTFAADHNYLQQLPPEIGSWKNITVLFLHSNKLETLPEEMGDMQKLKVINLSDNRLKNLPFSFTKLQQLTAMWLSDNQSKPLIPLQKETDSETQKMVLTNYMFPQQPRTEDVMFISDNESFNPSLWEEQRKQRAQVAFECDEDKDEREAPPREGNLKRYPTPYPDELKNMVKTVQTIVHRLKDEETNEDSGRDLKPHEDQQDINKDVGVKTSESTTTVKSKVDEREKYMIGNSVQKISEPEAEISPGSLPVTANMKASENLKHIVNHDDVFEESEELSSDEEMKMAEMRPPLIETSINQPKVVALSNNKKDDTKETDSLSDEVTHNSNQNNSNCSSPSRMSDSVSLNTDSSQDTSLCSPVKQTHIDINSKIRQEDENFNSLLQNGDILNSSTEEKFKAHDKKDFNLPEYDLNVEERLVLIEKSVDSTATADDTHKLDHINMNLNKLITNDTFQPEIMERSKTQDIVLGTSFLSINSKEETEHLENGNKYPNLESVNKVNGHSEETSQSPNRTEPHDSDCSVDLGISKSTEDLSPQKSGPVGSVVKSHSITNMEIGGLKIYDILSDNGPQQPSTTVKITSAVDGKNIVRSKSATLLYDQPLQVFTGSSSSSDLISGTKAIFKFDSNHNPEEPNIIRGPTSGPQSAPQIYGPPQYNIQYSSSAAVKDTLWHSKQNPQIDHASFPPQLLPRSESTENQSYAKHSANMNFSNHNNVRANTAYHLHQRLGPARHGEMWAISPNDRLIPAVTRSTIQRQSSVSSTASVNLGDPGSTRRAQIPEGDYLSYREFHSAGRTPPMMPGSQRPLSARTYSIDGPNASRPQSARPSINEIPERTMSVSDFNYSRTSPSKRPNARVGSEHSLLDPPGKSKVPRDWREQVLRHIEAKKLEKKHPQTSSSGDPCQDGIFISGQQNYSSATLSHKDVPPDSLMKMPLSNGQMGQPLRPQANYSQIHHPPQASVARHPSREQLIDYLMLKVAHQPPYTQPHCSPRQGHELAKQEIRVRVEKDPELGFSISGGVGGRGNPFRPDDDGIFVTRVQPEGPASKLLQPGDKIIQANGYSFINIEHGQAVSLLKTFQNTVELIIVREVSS
UniProt P07814: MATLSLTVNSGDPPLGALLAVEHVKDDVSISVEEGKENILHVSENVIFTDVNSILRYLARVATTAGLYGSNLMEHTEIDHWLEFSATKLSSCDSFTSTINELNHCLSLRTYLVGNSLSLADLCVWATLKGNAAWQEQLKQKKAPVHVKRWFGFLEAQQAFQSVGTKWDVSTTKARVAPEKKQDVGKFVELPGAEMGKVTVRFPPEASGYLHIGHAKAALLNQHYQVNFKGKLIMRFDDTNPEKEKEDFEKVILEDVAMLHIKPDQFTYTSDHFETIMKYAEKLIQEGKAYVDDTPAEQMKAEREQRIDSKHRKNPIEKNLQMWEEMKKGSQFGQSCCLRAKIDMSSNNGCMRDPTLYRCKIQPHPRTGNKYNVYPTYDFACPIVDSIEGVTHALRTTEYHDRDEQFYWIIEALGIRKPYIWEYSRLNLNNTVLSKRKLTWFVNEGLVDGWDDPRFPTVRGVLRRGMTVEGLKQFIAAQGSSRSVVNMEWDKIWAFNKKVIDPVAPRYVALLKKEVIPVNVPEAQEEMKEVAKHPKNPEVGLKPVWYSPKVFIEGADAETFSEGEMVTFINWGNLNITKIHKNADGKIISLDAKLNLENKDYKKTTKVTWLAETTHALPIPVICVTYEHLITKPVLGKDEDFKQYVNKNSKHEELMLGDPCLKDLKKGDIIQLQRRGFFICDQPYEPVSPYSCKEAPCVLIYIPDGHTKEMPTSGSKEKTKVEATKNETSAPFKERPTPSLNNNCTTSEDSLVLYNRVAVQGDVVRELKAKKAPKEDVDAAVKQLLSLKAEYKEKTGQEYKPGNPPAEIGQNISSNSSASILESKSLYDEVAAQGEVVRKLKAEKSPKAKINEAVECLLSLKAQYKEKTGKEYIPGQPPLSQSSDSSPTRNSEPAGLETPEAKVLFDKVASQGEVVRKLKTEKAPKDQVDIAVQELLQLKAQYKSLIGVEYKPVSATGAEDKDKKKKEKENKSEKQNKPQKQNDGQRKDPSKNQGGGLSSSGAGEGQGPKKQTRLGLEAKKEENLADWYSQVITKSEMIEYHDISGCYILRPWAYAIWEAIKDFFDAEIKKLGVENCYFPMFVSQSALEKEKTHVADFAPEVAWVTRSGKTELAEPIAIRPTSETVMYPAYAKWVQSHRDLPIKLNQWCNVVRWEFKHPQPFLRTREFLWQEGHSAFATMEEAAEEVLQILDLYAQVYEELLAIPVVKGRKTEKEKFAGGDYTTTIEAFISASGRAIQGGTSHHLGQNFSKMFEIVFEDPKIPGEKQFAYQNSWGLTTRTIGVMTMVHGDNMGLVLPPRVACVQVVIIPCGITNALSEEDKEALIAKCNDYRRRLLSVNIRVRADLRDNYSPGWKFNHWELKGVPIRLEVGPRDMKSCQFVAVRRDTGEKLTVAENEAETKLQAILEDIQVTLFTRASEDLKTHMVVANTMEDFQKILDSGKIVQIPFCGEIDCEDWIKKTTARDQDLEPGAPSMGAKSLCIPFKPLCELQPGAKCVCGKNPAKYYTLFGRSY
UniProt Q96A26: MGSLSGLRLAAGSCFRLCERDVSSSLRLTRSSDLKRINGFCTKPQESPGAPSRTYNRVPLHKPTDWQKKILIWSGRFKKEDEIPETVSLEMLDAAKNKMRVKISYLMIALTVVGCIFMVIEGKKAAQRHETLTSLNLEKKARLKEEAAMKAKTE
UniProt Q96HE7: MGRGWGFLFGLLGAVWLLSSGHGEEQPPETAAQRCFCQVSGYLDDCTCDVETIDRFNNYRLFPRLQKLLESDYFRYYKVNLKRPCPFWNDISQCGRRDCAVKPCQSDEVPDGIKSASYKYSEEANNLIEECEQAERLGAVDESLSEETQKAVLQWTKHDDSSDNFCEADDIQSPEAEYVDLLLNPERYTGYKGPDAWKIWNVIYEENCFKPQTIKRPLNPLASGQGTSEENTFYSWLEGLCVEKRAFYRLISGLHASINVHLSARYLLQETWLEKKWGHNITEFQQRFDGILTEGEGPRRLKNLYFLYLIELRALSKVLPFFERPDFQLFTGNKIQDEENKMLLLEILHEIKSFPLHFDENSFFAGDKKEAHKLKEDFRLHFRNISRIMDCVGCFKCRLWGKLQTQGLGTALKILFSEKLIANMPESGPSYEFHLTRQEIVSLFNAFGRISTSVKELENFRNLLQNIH
UniProt Q5BKY9: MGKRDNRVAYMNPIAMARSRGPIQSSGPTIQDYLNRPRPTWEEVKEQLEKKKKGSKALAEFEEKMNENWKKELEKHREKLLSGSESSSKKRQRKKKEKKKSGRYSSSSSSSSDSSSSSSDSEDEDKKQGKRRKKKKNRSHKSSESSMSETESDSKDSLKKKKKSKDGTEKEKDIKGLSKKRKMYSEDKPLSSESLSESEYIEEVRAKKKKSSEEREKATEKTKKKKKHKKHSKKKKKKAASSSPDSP
UniProt Q9Y282: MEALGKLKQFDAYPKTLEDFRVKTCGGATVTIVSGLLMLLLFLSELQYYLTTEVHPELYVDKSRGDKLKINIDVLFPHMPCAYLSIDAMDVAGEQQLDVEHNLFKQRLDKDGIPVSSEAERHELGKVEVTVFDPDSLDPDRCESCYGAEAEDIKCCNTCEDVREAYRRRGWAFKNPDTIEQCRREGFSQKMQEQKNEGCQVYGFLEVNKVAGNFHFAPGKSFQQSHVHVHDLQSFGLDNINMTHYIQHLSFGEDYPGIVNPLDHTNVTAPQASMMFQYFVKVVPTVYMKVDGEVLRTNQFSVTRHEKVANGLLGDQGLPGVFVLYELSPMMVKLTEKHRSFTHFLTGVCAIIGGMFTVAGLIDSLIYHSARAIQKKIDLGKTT
UniProt Q9NQT5, whole entry, looked up: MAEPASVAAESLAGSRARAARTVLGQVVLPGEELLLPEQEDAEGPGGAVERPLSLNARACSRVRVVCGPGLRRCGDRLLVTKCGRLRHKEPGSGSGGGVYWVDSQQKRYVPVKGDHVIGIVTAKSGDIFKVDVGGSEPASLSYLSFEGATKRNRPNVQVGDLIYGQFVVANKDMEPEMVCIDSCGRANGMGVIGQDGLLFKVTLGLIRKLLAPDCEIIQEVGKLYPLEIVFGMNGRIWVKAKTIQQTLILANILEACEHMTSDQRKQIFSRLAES
UniProt Q6P587: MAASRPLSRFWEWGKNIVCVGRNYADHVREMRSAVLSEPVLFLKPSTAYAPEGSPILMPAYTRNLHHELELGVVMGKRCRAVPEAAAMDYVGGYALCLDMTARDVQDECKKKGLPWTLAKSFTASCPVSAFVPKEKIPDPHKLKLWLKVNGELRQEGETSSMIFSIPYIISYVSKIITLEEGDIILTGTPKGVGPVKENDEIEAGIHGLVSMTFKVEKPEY
UniProt O95571: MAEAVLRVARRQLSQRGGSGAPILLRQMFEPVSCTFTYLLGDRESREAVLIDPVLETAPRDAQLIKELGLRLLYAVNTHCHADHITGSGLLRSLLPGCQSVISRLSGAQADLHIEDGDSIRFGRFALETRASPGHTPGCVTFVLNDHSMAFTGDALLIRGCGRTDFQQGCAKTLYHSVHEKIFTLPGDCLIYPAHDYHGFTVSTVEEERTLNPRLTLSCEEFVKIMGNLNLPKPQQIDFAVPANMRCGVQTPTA

What was measured:
Assay in all cases: log2 fold change, soluble protein after heating vs DMSO (PISA); higher = thermal stabilisation; K562 cells, 10 uM, 30 min; active = over 0.2 and 3.5 SD of the protein, either way, in both replicates (recomputed)
[1] = compound: CC[C@@H]1C(=O)N(C)c2cnc(Nc3ccc(C(=O)NC4CCN(C)CC4)cc3OC)nc2N1C1CCCC1
Procedure, shortened: (§1)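 Thermal stability values are relative to control samples and come from duplicates. They are expressed as log2 fold changes. For measurement, K562 cells (2×10^6 cells/mL) received 10 μM compound for 30 min, and aliquots were heated for 3 min over 48°C-58°C, pooled, and extracted at 4°C in PBS with 0.5% NP-40. Soluble protein, the supernatant after 21,000xg for 90 min, was quantified by TMTpro 16plex LC-MS/MS with equalised channel sums.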

[2] = compound: CC[C@@H]1C(=O)N(C)c2cnc(Nc3ccc(C(=O)N[C@H]4CC[C@H](N5CCN(CC6CC6)CC5)CC4)cc3OC)nc2N1C(C)C [volasertib]
Procedure, shortened: as §1

[3] = compound: CC[C@H](C)N1C=C(C2=C(C=C(C=C21)C3=CN=C(C=C3)N4CCNCC4)C(=O)NCC5=C(C=C(NC5=O)C)C)C
Procedure, shortened: as §1

[4] = compound: CC[C@H](C)[C@@H](C(=O)N[C@@H]([C@@H](C)O)C(=O)N[C@@H](CC(C)C)C(=O)[C@]1(CO1)C)NC(=O)[C@H]([C@@H](C)CC)N(C)C(=O)C [epoxomicin]
Procedure, shortened: as §1

[5] = compound: CCn1c(C(=O)N(C2CC2)C2CC2)cc2c3c(ncn3C)c(Nc3cc(C)n(C)n3)nc21
Procedure, shortened: as §1

[6] = compound: CCn1cc(-c2ccnc3[nH]c(-c4cccc(CN(C)C)c4)cc23)c(-c2ccc(NC(=O)N(C)C)cc2)n1
Procedure, shortened: as §1

[7] = compound: CN(C)CC(=O)Nc1ccc2[nH]c(=O)c3ccccc3c2c1
Procedure, shortened: as §1

[8] = compound: CN(CCOC1=CC=C(C=C1)C[C@H]2C(=O)NC(=O)S2)C3=CC=CC=N3 (racemic) [rosiglitazone]
Procedure, shortened: as §1

[9] = compound: CN1C2=C(C3=C1C(=O)N(N=C3)CC4=CC(=CC=C4)N)SC(=C2)S(=O)C
Procedure, shortened: as §1

[10] = compound: CN1CCC(CNc2ccc3ncc(-c4cccc(OC(F)(F)F)c4)n3n2)CC1
Procedure, shortened: as §1

[11] = compound: CN1CCN(CCOc2cc(OC3CCOCC3)c3c(Nc4c(Cl)ccc5c4OCO5)ncnc3c2)CC1 [saracatinib]
Procedure, shortened: as §1

[12] = compound: CN1CCN(c2nc(C3=C(c4c[nH]c5ccccc45)C(=O)NC3=O)c3ccccc3n2)CC1 [sotrastaurin]
Procedure, shortened: as §1

[13] = compound: CN1CC[C@H](c2c(O)cc(O)c3c(=O)cc(-c4ccccc4Cl)oc23)[C@H](O)C1 [alvocidib]
Procedure, shortened: as §1

[14] = compound: CN1CCc2c(c3ccccc3n2Cc2ccc(C(=O)NO)cc2)C1 [Tubastatin A]
Procedure, shortened: as §1

[15] = compound: CNC(=O)C1=CC=CC=C1NC2=NC(=NC=C2Cl)NC3=C(C=C(C=C3)N4CCOCC4)OC
Procedure, shortened: as §1

[16] = compound: CNC(=O)c1ccc(Nc2ncc(C(F)(F)F)c(NCc3nccnc3N(C)S(C)(=O)=O)n2)cc1 [defactinib]
Procedure, shortened: as §1

[17] = compound: CNCc1ccc(-c2[nH]c3cc(F)cc4c3c2CCNC4=O)cc1 [rucaparib]
Procedure, shortened: as §1

[18] = compound: CNc1nc(-c2ccc3c(N)n[nH]c3c2)cc(N2C[C@@H](C(=O)NC3CCCCC3)CC[C@H]2C)n1
Procedure, shortened: as §1

[19] = compound: COC(=O)N[C@@H](C)CNc1nccc(-c2cn(C(C)C)nc2-c2cc(Cl)cc(NS(C)(=O)=O)c2F)n1 [encorafenib]
Procedure, shortened: as §1

[20] = compound: COC(=O)[C@H](CCSC)NC(=O)C1=C(C=C(C=C1)NC[C@H](CS)N)C2=CC=CC=C2
Procedure, shortened: as §1

Measured: log2 fold change

EXOSC1 (UniProt Q9Y3B2)
inactive: [1] -0.009 | [2] -0.024 | [3] 0.033 | [4] -0.09 | [5] -0.009 | [6] 0.07 | [7] 0.005 | [8] -0.011 | [9] 0.129 | [10] 0.111 | [11] -0.107 | [12] 0.029 | [13] 0.061 | [14] -0.009 | [15] 0.019 | [16] -0.002 | [17] 0.128 | [18] 0.071 | [19] 0.115 | [20] -0.012

ETFB (UniProt P38117)
inactive: [1] -0.077 | [2] 0.118 | [3] -0.021 | [4] 0.024 | [5] -0.003 | [6] 0.011 | [7] -0.029 | [8] 0.02 | [9] -0.059 | [10] -0.026 | [11] -0.002 | [12] 0.044 | [13] -0.012 | [14] -0.052 | [15] 0 | [16] 0.015 | [17] -0.072 | [18] 0.033 | [19] -0.025 | [20] 0.026

ERLEC1 (UniProt Q96DZ1)
inactive: [1] -0.005 | [2] -0.042 | [3] -0.038 | [4] -0.018 | [5] -0.034 | [6] -0.013 | [7] -0.032 | [8] 0.001 | [9] 0.002 | [10] 0.025 | [11] 0.014 | [12] 0.035 | [13] -0.01 | [14] 0.018 | [15] 0.019 | [16] -0.026 | [17] -0.01 | [18] -0.046 | [19] 0.02 | [20] -0.016

FAM20B (UniProt O75063)
inactive: [1] -0.01 | [2] -0.091 | [3] 0.047 | [4] 0.01 | [5] -0.008 | [6] 0.008 | [7] -0.042 | [8] 0.011 | [9] -0.05 | [10] 0.098 | [11] -0.032 | [12] 0.005 | [13] -0.051 | [14] 0.119 | [15] -0.064 | [16] -0.059 | [17] -0.032 | [18] -0.034 | [19] 0.064 | [20] 0.01

EXOSC2 (UniProt Q13868)
inactive: [1] 0.044 | [2] 0.061 | [3] -0.041 | [4] -0.023 | [5] 0.03 | [6] 0.016 | [7] -0.021 | [8] -0.011 | [9] -0.002 | [10] 0.045 | [11] 0.05 | [12] 0.015 | [13] 0.03 | [14] -0.032 | [15] -0.024 | [16] 0.029 | [17] -0.013 | [18] -0.043 | [19] -0.016 | [20] -0.019

ERBIN isoform 8 (UniProt Q96RT1)
inactive: [1] 0.007 | [2] 0.064 | [3] 0.083 | [4] -0.026 | [5] 0.002 | [6] -0.094 | [7] -0.003 | [8] 0.011 | [9] -0.108 | [10] 0.087 | [11] -0.005 | [12] -0.098 | [13] -0.063 | [14] 0.043 | [15] 0.024 | [16] -0.015 | [17] -0.001 | [18] 0.048 | [19] -0.036 | [20] 0.015

EPHX1 (UniProt P07099)
inactive: [1] 0.021 | [2] 0.121 | [3] -0.03 | [4] -0.006 | [5] -0.018 | [6] 0.053 | [7] -0.056 | [8] -0.007 | [9] 0.076 | [10] 0.113 | [11] 0.113 | [12] 0.05 | [13] 0.006 | [14] -0.029 | [15] 0.023 | [16] -0.019 | [17] -0.016 | [18] -0.067 | [19] -0.023 | [20] 0.048

EPRS (UniProt P07814)
inactive: [1] 0.13 | [2] 0.059 | [3] 0.019 | [4] -0.204 | [5] -0.027 | [6] 0.137 | [7] -0.007 | [8] -0.055 | [9] 0.38 | [10] 0.048 | [11] -0.104 | [12] -0.056 | [13] 0.214 | [14] 0.024 | [15] 0.017 | [16] 0.284 | [17] 0.421 | [18] 0.145 | [19] 0.204 | [20] 0.015

FAM162A (UniProt Q96A26)
inactive: [1] -0.036 | [2] 0.092 | [3] -0.055 | [4] 0.003 | [5] -0.035 | [6] 0.028 | [7] 0.019 | [8] 0.014 | [9] -0.074 | [10] 0.018 | [11] -0.058 | [12] 0.057 | [13] -0.043 | [14] 0.107 | [15] 0.02 | [16] -0.02 | [17] -0.077 | [18] -0.05 | [19] -0.045 | [20] -0.036

ETF1 (UniProt P62495)
inactive: [1] 0.01 | [2] -0.046 | [3] 0.038 | [4] 0.01 | [5] 0 | [6] -0.02 | [7] -0.023 | [8] 0.048 | [9] -0.048 | [10] -0.085 | [11] 0.006 | [12] 0.037 | [13] -0.045 | [14] -0.023 | [15] 0.031 | [16] -0.017 | [17] -0.045 | [18] 0.01 | [19] 0.02 | [20] -0.029

ERO1A (UniProt Q96HE7)
inactive: [1] 0 | [2] -0.028 | [3] 0.023 | [4] -0.008 | [5] 0.032 | [6] 0.056 | [7] -0.016 | [8] 0.006 | [9] 0.047 | [10] 0.02 | [11] -0.024 | [12] -0.01 | [13] 0 | [14] -0.002 | [15] 0.02 | [16] 0.039 | [17] 0.036 | [18] -0.033 | [19] 0.027 | [20] 0.002

FAM133B (UniProt Q5BKY9)
inactive: [1] 0.005 | [2] 0.046 | [3] 0.005 | [4] 0.059 | [5] 0.004 | [6] 0.016 | [7] -0.07 | [8] 0.018 | [9] -0.02 | [10] -0.028 | [11] 0 | [12] 0.041 | [13] 0 | [14] -0.016 | [15] -0.098 | [16] -0.012 | [17] -0.008 | [18] 0.033 | [19] -0.002 | [20] 0.011

ERGIC3 isoform 3 (UniProt Q9Y282)
inactive: [1] -0.04 | [2] -0.025 | [3] -0.012 | [4] 0.006 | [5] 0.02 | [6] 0.033 | [7] -0.009 | [8] 0.012 | [9] -0.012 | [10] -0.14 | [11] 0.084 | [12] 0.027 | [13] -0.001 | [14] -0.039 | [15] -0.039 | [16] -0.003 | [17] -0.027 | [18] -0.02 | [19] -0.019 | [20] 0.011

Retrieved one by one from the entries so far (two):
FAM162A (UniProt Q96A26)
inactive: [1] -0.036 | [2] 0.092 | [3] -0.055 | [4] 0.003 | [5] -0.035 | [6] 0.028 | [7] 0.019 | [8] 0.014 | [9] -0.074 | [10] 0.018 | [11] -0.058 | [12] 0.057 | [13] -0.043 | [14] 0.107 | [15] 0.02 | [16] -0.02 | [17] -0.077 | [18] -0.05 | [19] -0.045 | [20] -0.036

ETF1 (UniProt P62495)
inactive: [1] 0.01 | [2] -0.046 | [3] 0.038 | [4] 0.01 | [5] 0 | [6] -0.02 | [7] -0.023 | [8] 0.048 | [9] -0.048 | [10] -0.085 | [11] 0.006 | [12] 0.037 | [13] -0.045 | [14] -0.023 | [15] 0.031 | [16] -0.017 | [17] -0.045 | [18] 0.01 | [19] 0.02 | [20] -0.029

Remaining list, next part

EXOSC3 (UniProt Q9NQT5)
inactive: [1] 0.001 | [2] 0.036 | [3] -0.004 | [4] -0.019 | [5] -0.006 | [6] -0.027 | [7] 0.025 | [8] 0.033 | [9] 0.007 | [10] 0.078 | [11] -0.032 | [12] -0.022 | [13] -0.005 | [14] 0 | [15] -0.032 | [16] -0.029 | [17] 0.04 | [18] 0.051 | [19] 0.023 | [20] -0.062

FAHD1 (UniProt Q6P587)
inactive: [1] 0.019 | [2] 0.039 | [3] -0.023 | [4] -0.004 | [5] 0.051 | [6] 0.012 | [7] -0.025 | [8] 0.009 | [9] -0.068 | [10] 0.02 | [11] 0.051 | [12] 0.07 | [13] 0.039 | [14] 0.038 | [15] 0.043 | [16] 0 | [17] -0.022 | [18] -0.005 | [19] -0.03 | [20] 0.02

ETHE1 (UniProt O95571)
inactive: [1] 0.03 | [2] 0.029 | [3] -0.047 | [4] 0.025 | [5] -0.005 | [6] 0.001 | [7] 0.024 | [8] 0.087 | [9] -0.027 | [10] -0.046 | [11] 0.018 | [12] 0.033 | [13] -0.037 | [14] -0.007 | [15] -0.042 | [16] -0.015 | [17] -0.026 | [18] -0.058 | [19] -0.043 | [20] 0
